Experimental data from patent publication US8663668B2, “Preservative for medical devices” (Fresenius Medical Care Deutschland GmbH, priority 2004, dated 2014).

Assay: rinsability of the preservative solution from the adsorber column
Details: for more remained in the columns during preservation: subsequent tests; for elution / rinsing behavior relative to PHMB: rinsing operation of the column

Row | Compound | PHMB detected at the end of the rinsing operation (limit of detection of PHMB = 0.90 mg/L) | more remained in the columns during preservation | elution / rinsing behavior relative to PHMB | elution / rinsing behavior relative to PHMB (listed as Trp)
1 | poly(hexamethylene)biguanide [PHMB, reference compound] | < 0.90 mg/L | 20% | – | –
2 | N[C@@H](Cc1c[nH]c2ccccc12)C(=O)O [Tryptophan, tryptophan] | – | 8% | removed from the column to the same extent as PHMB | very similar to that of PHMB
